Data as given in PubChem BioAssay AID493246 (Drosophila RNAi Screening Center, 2011)
The screen tested about 21,000 reagents; shown is an unselected part of those that have a named target and a result. In the full data, 429 (2%) were called active. 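Values are raw and not normalised between plates; calls rest on per-plate z-scores that were not deposited.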 The record does not give: the amount of reagent, the time to read-out.

- Aim: 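Genome-wide search for dsRNAs that reduce cell number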 (primary screen)
- Cell system: Drosophila Kc and S2R+ cells
- Reagents: long dsRNA against Drosophila genes
- Measurement: 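Raw, unnormalised count of remaining cells in each well; per-plate z-scores of cell number underlie the calls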
- Scale: Kc cell number and S2R+ cell number: higher = more cells remaining
- Hit rule: 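Active when the per-plate z-score of cell number is 3 or more in the direction of fewer cells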

With Sulf1 (Sulfated) [DRSC16874], how do the results read?
Kc cell number, rep 1: 1.32e6; Kc cell number, rep 2: 1.42e6; S2R+ cell number, rep 1: 1.17e6; S2R+ cell number, rep 2: 1.31e6; Outcome: inactive

With Rpt2 (Regulatory particle triple-A ATPase 2) [DRSC16799], how do the results read?
Kc cell number, rep 1: 7.02e5; Kc cell number, rep 2: 9.73e5; S2R+ cell number, rep 1: 7.53e5; S2R+ cell number, rep 2: 8.44e5; Outcome: active

With Map60 (Microtubule-associated protein 60) [DRSC07464], what does the deposit list?
Kc cell number, rep 1: 1.37e6; Kc cell number, rep 2: 1.47e6; S2R+ cell number, rep 1: 1.08e6; S2R+ cell number, rep 2: 1.17e6; Outcome: inactive

With CG33160 [DRSC08197], what was measured?
Kc cell number, rep 1: 1.46e6; Kc cell number, rep 2: 1.27e6; S2R+ cell number, rep 1: 8.88e5; S2R+ cell number, rep 2: 1.09e6; Outcome: inactive

For Trm7-34 (tRNA methyltransferase 7-34) [DRSC16171], what was measured?
Kc cell number, rep 1: 1.29e6; Kc cell number, rep 2: 1.38e6; S2R+ cell number, rep 1: 1.09e6; S2R+ cell number, rep 2: 1.18e6; Outcome: inactive

With Ntmt (N-terminal methyltransferase) [DRSC06624], what was measured?
Kc cell number, rep 1: 1.85e6; Kc cell number, rep 2: 1.83e6; S2R+ cell number, rep 1: 1.49e6; S2R+ cell number, rep 2: 1.66e6; Outcome: inactive

What did the screen give for CG34404 [DRSC15335]?
Kc cell number, rep 1: 1.31e6; Kc cell number, rep 2: 1.44e6; S2R+ cell number, rep 1: 1.31e6; S2R+ cell number, rep 2: 1.45e6; Outcome: inactive

For CG34404 [DRSC15978], what does the deposit list?
Kc cell number, rep 1: 1.55e6; Kc cell number, rep 2: 1.64e6; S2R+ cell number, rep 1: 1.31e6; S2R+ cell number, rep 2: 1.42e6; Outcome: inactive

With Loxl2 (Lysyl oxidase-like 2) [DRSC04469], what was measured?
Kc cell number, rep 1: 1.43e6; Kc cell number, rep 2: 1.50e6; S2R+ cell number, rep 1: 8.57e5; S2R+ cell number, rep 2: 9.75e5; Outcome: inactive

Which result is listed for Sgf29 (SAGA-associated factor 29kDa) [DRSC04076]?
Kc cell number, rep 1: 1.36e6; Kc cell number, rep 2: 1.47e6; S2R+ cell number, rep 1: 1.21e6; S2R+ cell number, rep 2: 1.28e6; Outcome: inactive

What did the screen give for CG11854 [DRSC14409]?
Kc cell number, rep 1: 1.75e6; Kc cell number, rep 2: 1.71e6; S2R+ cell number, rep 1: 1.02e6; S2R+ cell number, rep 2: 1.16e6; Outcome: inactive

For Acsf3 (Acyl-CoA synthetase family member 3) [DRSC18146], what was measured?
Kc cell number, rep 1: 1.65e6; Kc cell number, rep 2: 1.72e6; S2R+ cell number, rep 1: 1.13e6; S2R+ cell number, rep 2: 1.35e6; Outcome: inactive

Just “Kc cell number, rep 1”, for 2 of the entries above:
Sgf29 (SAGA-associated factor 29kDa) [DRSC04076]: 1.36e6
CG11854 [DRSC14409]: 1.75e6
